Reference: patent US20030162759A1, “Aldosterone blocker therapy to prevent or treat inflammation-related disorders” (priority 2000, published 2003)

System: aldosterone + salt treated rats
Test: Assay C further aldosterone infusion study: body weight, ventricle weights, tibia length (myocardial hypertrophy)
Type: in vivo, rat
Excerpt: Assay C: Further in vivo Aldosterone Infusion Study The procedure of Assay B was expanded upon in a further study. […] Myocardial tissue from animals in each treatment group was examined after 7, 14, or 30 days of treatment. […] Lesions were preceded by the expression and progressive upregulation of proinflammatory molecules. […] Male Sprague-Dawley rats, weighing 230 to 250 g, (Harlan Sprague-Dawley Industries, Indianapolis, Ind.) were housed in a room 12-hours light/12-hours dark daily cycle at an ambient temperature of 22±1° C. (n=96). Animals were allowed one week to adjust after arrival and had free access to TEKLAD 22/5 rodent diet (Harlan TEKLAD, Madison, Wis.) and tap water until the initiation of the experiment. Prior to surgery the animals were individually weighed and placed in one of the following groups: […] Potassium chloride supplementation was added to the saline solution in order to prevent the potential hypokalemia associated with aldosterone excess. […] Louis, Mo.) was inserted subcutaneously at the nape of the neck. Aldosterone was administered at a dose of […]. […] Animals were sacrificed from each group (n=8-13) after 7, 14, or 30 days of treatment. Animals to be sacrificed after 7 or 14 days of treatment were uninephrectomized and implanted with an Alzet minipump. Animals treated for 30 days were uninephrectomized, fitted for Alzet minipumps, and implanted with radio telemetry units (model#TA11PA-C40, Data Sciences Inc., St. Paul, Minn.) according to the following procedure. […] The surgery site was clipped, scrubbed with nolvasan, and sprayed with betadine. A rostral-caudal incision was made through the skin from the base of the rib cage to the pubic region using a #11 scalpel blade. A second incision was made through the muscles of the abdominal wall to expose the peritoneal cavity. […] Organs were carefully displaced with tissue retractors in order to expose the abdominal aorta. […]

C[C@]12CCC(=O)C=C1CC[C@@H]1[C@@H]2[C@@H](O)C[C@]2(C=O)[C@@H](C(=O)CO)CC[C@@H]12 [aldosterone]
Final Body Weight (Table 9.12, 14-day protocol, group Mean): 270 g | Final Body Weight (Table 9.12, 14-day protocol, individual rats, listed as Aldosterone + salt): 290 g | Final Body Weight (Table 9.13, 30-day protocol, eplerenone 100 mg/kg/day, individual rats, listed as Aldosterone + salt): 290 g
